# Results reported in PubChem BioAssay AID1671190 (National Center for Advancing Translational Sciences (NCATS), 2021).
# Chains of the proteins cited; added tags and fusions are not shown. Lines headed by an entry give the natural chain unless they say otherwise; changes in a name come on top.
# UniProt P18054: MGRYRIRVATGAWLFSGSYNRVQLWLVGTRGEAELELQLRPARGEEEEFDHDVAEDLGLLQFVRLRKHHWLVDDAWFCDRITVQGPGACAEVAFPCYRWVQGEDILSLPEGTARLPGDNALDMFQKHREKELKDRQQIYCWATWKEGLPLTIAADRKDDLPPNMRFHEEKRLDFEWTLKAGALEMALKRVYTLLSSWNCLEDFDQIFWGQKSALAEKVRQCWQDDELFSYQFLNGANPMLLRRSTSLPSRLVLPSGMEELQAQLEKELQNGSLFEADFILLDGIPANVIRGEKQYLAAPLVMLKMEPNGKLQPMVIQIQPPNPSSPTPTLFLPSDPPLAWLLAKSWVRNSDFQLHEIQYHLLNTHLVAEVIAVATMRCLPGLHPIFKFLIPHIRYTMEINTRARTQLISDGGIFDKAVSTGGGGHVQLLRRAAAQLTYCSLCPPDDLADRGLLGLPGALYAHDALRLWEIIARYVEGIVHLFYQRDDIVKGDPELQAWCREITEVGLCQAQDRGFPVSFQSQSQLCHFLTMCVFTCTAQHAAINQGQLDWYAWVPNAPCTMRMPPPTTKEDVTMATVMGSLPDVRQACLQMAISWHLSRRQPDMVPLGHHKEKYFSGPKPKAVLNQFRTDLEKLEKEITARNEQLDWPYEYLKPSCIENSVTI
# Values joined by “and” are separate entries in the source; they are usually repeats but may differ in a detail not shown here. Equal entries are not always repeated. Screen size: about 580,000 compounds; about 6,100 (1.1%) were called active. The shares of active, inactive and inconclusive entries below differ from those in the screen. Calls follow the shape of the dose curve; as a rule, active = well fitted inhibition curve with a large enough effect; inconclusive = small, poorly fitted or top-dose-only effect, or another doubt; inactive = no such curve, though single readings can be large or run the other way. Potencies of inconclusive entries are doubtful fits and often do not repeat.
# Target: Polyunsaturated fatty acid lipoxygenase ALOX12 (Homo sapiens) (UniProt P18054)
# Assay: Primary qHTS assay for inhibitors of human arachidonate 12S-lipoxygenase (ALOX12): Round 2
# Conditions: purified 12hLO, xylenol orange hydroperoxide absorbance; activity change, negative = inhibition: at 108 µM (top of the series)
# In short: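 Purified human 12hLO (150 nM final) in 25 mM Hepes, 0.01% Triton X-100, pH 7.0 was preincubated 15 min at room temperature with compound. Then 40 uM arachidonic acid was added, 30 min. Hydroperoxide was read by Fe-XO absorbance ratio 573/405 nm.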
# % is scaled to controls: 0 for no effect and ±100 for the full control effect; potency is read from the fitted curve at half-maximal effect.
SMILES,Potency,"activity change, negative = inhibition"
CCN1Cc2ccccc2NC(=O)C12CCNC2 (stereo not given),"inconclusive: 12.6 µM [inhibitor, full curve, poor fit]",
O=C1NC(=O)N(Cc2ccco2)C(=O)/C1=C/C=C/c1ccco1,active: 39.8 µM,
Cc1c(CC(=O)N2CCN(Cc3ccccc3)CC2)c(=O)oc2cc(O)ccc12,,inactive: 6.39%
CC/C=C/CC(=O)N[C@@H](c1ccccc1)[C@@H](O)C(=O)O[C@H]1C[C@@]2(O)[C@@H](OC(=O)c3ccccc3)C3[C@](C)(C(=O)[C@H](OC(C)=O)C(=C1C)C2(C)C)[C@@H](O)C[C@H]1OC[C@@]31OC(C)=O (stereo not given in full),,inactive: -2.01%
O=C(O)[C@H]1[C@H]2CN[C@H](C(=O)O)[C@H]21,"inconclusive: 2.82 µM [inhibitor, full curve, poor fit]",
CCCCCCNc1nc(OC)nc(N2CC3CC(C2)c2cccc(=O)n2C3)n1 (stereo not given),,inactive: 50.8%
COc1ccc(C(=O)c2c(C)n(CCN3CCOCC3)c3ccccc23)cc1,"inconclusive: 96.8 nM [inhibitor, full curve, poor fit] and inconclusive: 141 µM [inhibitor, single point]",
Cc1ncc2c(n1)C[C@@H]1CC[C@H]2N1C(=O)C1CCCC1,,inactive: 32.9%
O=C(O)CC1OCC=C2CN3CCC45c6ccccc6NC4C1C2CC35 (stereo not given),,inactive: -11.4%
Cc1ccc(N2CC(C(=O)OCC(=O)Nc3ccc(C#N)c(Cl)c3)CC2=O)cc1 (stereo not given),"inconclusive: 100 µM [inhibitor, single point]",
COc1ccc(-c2cc([C@H]3CN4CC[C@H]3C[C@@H]4CNC(=O)c3ccc4c(c3)OCO4)n(C)n2)cc1,,inactive: 11.2%
Cc1ccccc1-c1ccc2n(c1=O)C[C@H]1C[C@@H]2CN(C(=O)CSCC(=O)O)C1,"inconclusive: 39.8 µM [inhibitor, full curve]",
Cc1ccc(OCCOc2cccc(C=C3C(=O)NC(=O)NC3=O)c2)cc1,active: 31.6 µM,
CC(NCc1ccccc1Cl)C(O)c1ccccc1 (stereo not given),"inconclusive: 31.6 µM [inhibitor, full curve, poor fit]",
CC(=O)OC1N=C(c2ccc(Cl)cc2)c2cc(Br)ccc2NC1=O (stereo not given),"inconclusive: 100 µM [inhibitor, single point]",
CNCc1cn(C[C@H]2CC3CCN2C[C@@H]3C(=O)Nc2ccccc2)nn1 (stereo not given in full),,inactive: 55.4% [at 176 µM]
CCc1ccc(NC(=O)c2cccn(Cc3cccc([N+](=O)[O-])c3)c2=O)cc1,"inconclusive: 56.2 µM [inhibitor, partial curve, poor fit]",
CC1=C(O)C(=O)[C@H]2O[C@@H]2C1=O,"inconclusive: 5.62 µM [inhibitor, full curve, poor fit]",
C=C[C@H]1CN2CC[C@H]1C[C@@H]2CNCc1ccc(-c2ccccc2)cc1,,inactive: -15.3% [at 176 µM]
CCOC(=O)C1=CC(=C2C(=O)N(CC)C(=S)N(CC)C2=O)c2ccccc2O1,active: 17.8 µM,
CC(=O)c1ccc(OCC(=O)N2CCCC(N3CCN(c4ccccc4C)CC3)C2)cc1 (stereo not given),,inactive: 0.535%
Cc1nc(-c2ccccc2Br)cc([C@H]2CN3CC[C@H]2C[C@@H]3CNC(=O)Nc2ccccc2)n1,active: 11.2 µM,

SMILES,Potency,"activity change, negative = inhibition"
C=C(C)[C@]12C[C@@H](C)[C@@]34O[C@](Cc5ccccc5)(O[C@@H]1[C@@H]3C=C(COC(=O)Cc1ccc(O)c(OC)c1)C[C@]1(O)C(=O)C(C)=C[C@@H]41)O2,"inconclusive: 126 µM [inhibitor, single point]",
CCOC(=O)[C@]12Cc3c(cc(OC)c(OC)c3OC)[C@H]1N(C)C(=O)c1cc(OC)ccc12,"inconclusive: 89.1 µM [inhibitor, partial curve, poor fit]",
CCNCC(O)c1cccc(O)c1 (stereo not given),,inactive: -13.3%
CN1C(=O)/C(=C/c2cccn2-c2ccc3ccccc3c2)C(=O)NC1=S,"inconclusive: 79.4 µM [inhibitor, partial curve, poor fit]",
O=c1[nH]c2ccccc2n1C1CCN(C(c2cc3ccccc3o2)c2nnnn2-c2ccc3c(c2)OCCO3)CC1 (stereo not given),"inconclusive: 112 µM [inhibitor, single point]",
Cc1nn(-c2ccccc2)c2c1C(c1ccsc1)SCC(=O)N2 (stereo not given),"inconclusive: 3.55 µM [inhibitor, full curve, poor fit]",
Cc1[nH]nc2ccc(-c3cncc(OC[C@@H](N)Cc4c[nH]c5ccccc45)c3)cc12,"inconclusive: 6.85 µM [inhibitor, partial curve, poor fit]",
CCCCCn1c(=O)c(C(=O)Nc2ccccc2)c(O)c2ccccc21,,inactive: -2.3%
O=[N+]([O-])c1ccccc1CNCCc1c[nH]c2ccccc12,active: 0.562 µM,
COc1ccccc1-n1c(O)c(/C=N/N2CCCCC2)c(=O)n(-c2ccccc2OC)c1=S,"inconclusive: 112 µM [inhibitor, single point]",
Cc1ccc(-n2cccc2CC(=O)N2CCN(C3CCN(C)CC3)CC2)cc1,"inconclusive: 8.91 µM [inhibitor, full curve]",
O=C1NC(=O)N(Cc2ccco2)C(=O)/C1=C\c1cccn1CCOc1ccc(Cl)cc1,active: 39.8 µM,
CS(=O)(=O)N1C[C@H]2CCN(Cc3ccncc3F)C[C@H]21,,inactive: 41.5%
Cc1cc(/C=C2\C(=O)NC(=O)N(c3ccc(F)cc3)C2=O)c(C)n1-c1cccc(C(=O)O)c1,"inconclusive: 44.7 µM [inhibitor, partial curve]",
Cc1nc2cc(C(F)(F)F)ccc2n1C1CCN(Cc2nnnn2CCc2ccccc2)CC1,,inactive: -18.6%
Cc1cc(C)n2nc(SC(C)C(=O)N3CCC4(CC3)OCCO4)nc2n1 (stereo not given),,inactive: 12.5%
CN1C(=O)N(C)C(=O)C(CCc2ccncc2)(CCc2ccncc2)C1=O,,inactive: 38.3%
COc1ccc(CCNCc2ccc(Cl)cc2)cc1,active: 14.1 µM,
CC(=O)Nc1ccc(C=C2C(=O)NC(=O)NC2=O)cc1,"inconclusive: 35.5 µM [inhibitor, partial curve]",
O=c1c2ccccc2nc(/C=C/c2ccc(O)cc2)n1-c1ccccc1O,"inconclusive: 50.1 µM [inhibitor, partial curve, poor fit]",
CSCCC(c1nnnn1C(C)(C)C)N1CCC(n2c(=O)[nH]c3ccccc32)CC1 (stereo not given),"inconclusive: 112 µM [inhibitor, single point]",
C=CC[N+]1(C)CC[C@]23c4c5ccc(O)c4O[C@H]2C(=O)CC[C@@]3(O)[C@H]1C5 (stereo not given in full),"inconclusive: 44.7 µM [inhibitor, partial curve, poor fit]",

SMILES,Potency,"activity change, negative = inhibition"
Cc1[nH]c2ccc(OC(F)(F)F)cc2c1CCNCc1ccc(Cl)cc1,"inconclusive: 0.501 µM [inhibitor, full curve, poor fit]",
CCOP(=O)(OCC)C(NC(=O)C(Cl)Cl)C(Cl)(Cl)Cl (stereo not given),"inconclusive: 35.5 µM [inhibitor, partial curve, poor fit]",
Clc1ccccc1N1CCN(Cc2ccc3c(c2)OCO3)CC1,"inconclusive: 0.199 µM [inhibitor, full curve, poor fit]",
COc1ccc(C(CN(C)C)C2(O)CCCCC2)cc1 (stereo not given),"inconclusive: 17.2 µM [inhibitor, partial curve, poor fit]",
COc1ccc(C(=O)Nc2ccc(Cl)cc2C(=O)c2ccccc2)c(OC)c1,,inactive: -23%
c1ccc(CCNCc2ccc3[nH]ccc3c2)cc1,"inconclusive: 44.7 µM [inhibitor, partial curve, poor fit]",
COc1ccc(Br)cc1CN1CCN(C(=O)Cc2ccccc2)CC1,"inconclusive: 0.355 µM [inhibitor, full curve, poor fit]",
CC12Cc3cnoc3C=C1CCC1C2CCC2(C)C1CCC2(C)O (stereo not given),"inconclusive: 63.1 µM [inhibitor, partial curve, poor fit]",
CCOc1cc2c(cc1OCC)-n1cccc1C(c1c(O)cccc1OC)NC2 (stereo not given),"inconclusive: 50.1 µM [inhibitor, single point]",
CCOC(=O)[C@]12Cc3ccc(C)cc3[C@H]1N(C1CCCCC1)C(=O)c1cc(OC)ccc12,active: 56.2 µM,
CCCCCCOc1ccc(CN2CCN(CC)CC2)cc1,"inconclusive: 6.31 µM [inhibitor, full curve]",
Cc1cccc(OCC(=O)N2CCN(Cc3ccc4c(c3)OCO4)CC2)c1,"inconclusive: 2.24 µM [inhibitor, full curve]",
NC1=C([N+](=O)[O-])C(c2ccc3c(c2)OCO3)c2c(c3ccccc3oc2=O)O1 (stereo not given),,inactive: 0%
O=c1c2ccccc2nc(/C=C\c2ccccc2F)n1-c1ccc(O)cc1,,inactive: 0.0456%
CC(=O)OCC[N+](C)(C)C,"inconclusive: 8.91 µM [inhibitor, partial curve, poor fit]",
CN1CC[C@@]2(CCCN(C(=O)c3csnn3)C2)C1,"inconclusive: 35.5 µM [inhibitor, single point]",
Cc1cc(C(=O)C(C)(C)NO)ccc1Cl,"inconclusive: 0.447 µM [inhibitor, full curve, poor fit]",
CCN(CC)c1ccc(N=Cc2c(O)n(Cc3ccco3)c(=O)[nH]c2=O)cc1,"inconclusive: 31.6 µM [inhibitor, partial curve, poor fit]",
COc1ccc(-c2cc([C@H]3CN4CC[C@H]3C[C@@H]4COC(=O)Nc3ccc(C(C)C)cc3)n(C)n2)cc1OC,"inconclusive: 35.5 µM [inhibitor, full curve]",
CC(C)NC1C2CCC(CC2)C1(O)c1ccc(Cl)c(Cl)c1 (stereo not given),"inconclusive: 20 µM [inhibitor, partial curve]",
CCCCn1c(C)c(C(=O)OCC)c2c(CN3CCOCC3)c(O)ccc21,"inconclusive: 31.6 µM [inhibitor, single point]",

# 4 compounds from above, arranged by length of the SMILES, falling:
SMILES,Potency,"activity change, negative = inhibition"
CCOC(=O)[C@]12Cc3ccc(C)cc3[C@H]1N(C1CCCCC1)C(=O)c1cc(OC)ccc12,active: 56.2 µM,
NC1=C([N+](=O)[O-])C(c2ccc3c(c2)OCO3)c2c(c3ccccc3oc2=O)O1 (stereo not given),,inactive: 0%
Cc1cccc(OCC(=O)N2CCN(Cc3ccc4c(c3)OCO4)CC2)c1,"inconclusive: 2.24 µM [inhibitor, full curve]",
COc1ccc(Br)cc1CN1CCN(C(=O)Cc2ccccc2)CC1,"inconclusive: 0.355 µM [inhibitor, full curve, poor fit]",
